Test results reported in US20060234227.

The chains behind the UniProt entries cited, without tags or fusion partners. Residues count along the entry.
UniProt P19821, whole entry: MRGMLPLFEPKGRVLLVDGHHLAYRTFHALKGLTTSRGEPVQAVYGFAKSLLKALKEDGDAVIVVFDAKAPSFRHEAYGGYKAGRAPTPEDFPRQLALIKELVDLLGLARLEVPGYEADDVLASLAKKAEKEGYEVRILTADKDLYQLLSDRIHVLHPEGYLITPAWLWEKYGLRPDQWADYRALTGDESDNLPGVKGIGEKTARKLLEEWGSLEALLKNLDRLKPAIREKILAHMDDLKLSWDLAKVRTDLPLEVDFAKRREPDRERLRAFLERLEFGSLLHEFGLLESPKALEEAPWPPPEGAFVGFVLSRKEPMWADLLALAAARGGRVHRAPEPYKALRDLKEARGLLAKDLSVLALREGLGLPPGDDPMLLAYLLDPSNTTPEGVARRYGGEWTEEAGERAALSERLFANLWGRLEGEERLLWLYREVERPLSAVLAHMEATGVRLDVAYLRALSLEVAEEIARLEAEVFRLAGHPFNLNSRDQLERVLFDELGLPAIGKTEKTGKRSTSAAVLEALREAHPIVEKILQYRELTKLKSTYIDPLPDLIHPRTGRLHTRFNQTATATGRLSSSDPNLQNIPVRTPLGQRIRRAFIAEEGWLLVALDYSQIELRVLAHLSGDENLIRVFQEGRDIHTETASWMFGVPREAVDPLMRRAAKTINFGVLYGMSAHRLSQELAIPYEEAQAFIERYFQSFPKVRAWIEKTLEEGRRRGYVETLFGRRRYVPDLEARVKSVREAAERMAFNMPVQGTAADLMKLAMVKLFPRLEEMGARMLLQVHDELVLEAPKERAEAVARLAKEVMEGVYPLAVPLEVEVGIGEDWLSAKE
UniProt P19821, 290-832: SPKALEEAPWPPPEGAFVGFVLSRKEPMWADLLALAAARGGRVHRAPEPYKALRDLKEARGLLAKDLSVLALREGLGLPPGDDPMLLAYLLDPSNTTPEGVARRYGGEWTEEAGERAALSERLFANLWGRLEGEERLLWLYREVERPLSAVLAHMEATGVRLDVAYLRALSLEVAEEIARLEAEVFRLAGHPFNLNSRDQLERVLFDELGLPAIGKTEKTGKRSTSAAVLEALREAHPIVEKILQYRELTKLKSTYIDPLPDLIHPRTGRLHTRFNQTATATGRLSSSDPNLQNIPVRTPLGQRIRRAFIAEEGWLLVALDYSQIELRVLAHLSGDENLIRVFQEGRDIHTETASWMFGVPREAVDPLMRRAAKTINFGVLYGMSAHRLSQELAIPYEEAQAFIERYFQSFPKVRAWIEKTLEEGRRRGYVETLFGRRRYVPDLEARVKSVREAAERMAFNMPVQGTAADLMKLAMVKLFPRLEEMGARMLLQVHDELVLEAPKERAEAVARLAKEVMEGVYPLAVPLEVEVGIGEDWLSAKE
UniProt P19821, 281-832: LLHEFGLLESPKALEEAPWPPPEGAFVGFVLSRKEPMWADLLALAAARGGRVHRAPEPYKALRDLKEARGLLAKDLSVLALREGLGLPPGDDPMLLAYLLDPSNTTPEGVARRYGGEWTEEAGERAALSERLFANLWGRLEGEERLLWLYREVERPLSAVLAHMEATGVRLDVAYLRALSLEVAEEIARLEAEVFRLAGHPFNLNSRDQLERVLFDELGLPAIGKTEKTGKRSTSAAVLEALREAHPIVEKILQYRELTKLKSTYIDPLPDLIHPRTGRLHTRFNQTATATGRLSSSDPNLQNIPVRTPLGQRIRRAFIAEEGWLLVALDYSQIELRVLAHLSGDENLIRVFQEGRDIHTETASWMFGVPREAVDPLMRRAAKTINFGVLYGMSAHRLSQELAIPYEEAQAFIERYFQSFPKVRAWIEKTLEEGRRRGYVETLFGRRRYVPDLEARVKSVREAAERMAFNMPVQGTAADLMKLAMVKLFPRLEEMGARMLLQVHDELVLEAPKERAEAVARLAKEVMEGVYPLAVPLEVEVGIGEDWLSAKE

Experiments:
Assay in all cases: activity assay
[1] = target: Taq DNA polymerase (Thermus aquaticus) (UniProt P19821); conditions: 4.5 mM MgCl2, purified recombinant protein, protein details: Roche Applied Science, label: 5'-fluorescein on primer
[2] = target: Stoffel fragment of Taq DNA polymerase (Thermus aquaticus) (UniProt P19821); conditions: 4.5 mM MgCl2, purified recombinant protein, protein details: Applied BioSystems, label: 5'-fluorescein on primer
[3] = test system: TaqTopoC2 (Taq 279-832 - Topo V 518-984) (Thermus aquaticus / Methanopyrus kandleri chimera); conditions: 4.5 mM MgCl2, purified recombinant protein, label: 5'-fluorescein on primer
[4] = test system: TaqTopoC1 (Taq 279-832 - Topo V 384-984) (Thermus aquaticus / Methanopyrus kandleri chimera); conditions: 4.5 mM MgCl2, purified recombinant protein, label: 5'-fluorescein on primer
[5] = test system: PfuC2 (Pfu DNA polymerase - Topo V C2 domain 518-984); conditions: 4.5 mM MgCl2, purified recombinant protein, protein details: starts Met-Val instead of Met-Ile, Lys-Leu linker, label: 5'-fluorescein on primer
[6] = target: KlenTaq fragment of Taq DNA polymerase (Thermus aquaticus) (UniProt P19821); conditions: 4.5 mM MgCl2, purified recombinant protein, protein details: GeneCraft, label: 5'-fluorescein on primer
[7] = test system: TaqTopoC3 (Taq 279-832 - Topo V 676-984) (Thermus aquaticus / Methanopyrus kandleri chimera); conditions: 4.5 mM MgCl2, purified recombinant protein, label: 5'-fluorescein on primer
[8] = test system: TopoTaq (Topo V 685-984 - AYDVGA linker - Taq 290-832) (Methanopyrus kandleri / Thermus aquaticus chimera); conditions: 4.5 mM MgCl2, purified recombinant protein, protein details: initiating Met, expressed in E. coli BL21 pLysS, label: 5'-fluorescein on primer
[9] = target: Pfu DNA polymerase (Pyrococcus furiosus) (UniProt P61875); conditions: 4.5 mM MgCl2, purified recombinant protein, label: 5'-fluorescein on primer
[10] = primer extension 50-105 C, no added salt
[11] = primer extension 50-105 C, 0.25 M potassium glutamate

Measured: activity on this sequence

GTAATACGACTCACTATAGGG / CCCCCAAAAACCCTATAGTGAGTCGTATTACAATTCACTGGCCGTCGTTTTT [PTJ primer-template junction]
active: [1]; primer extension 75 C, salt inhibition Ki NaCl 138.7, KCl 161.0, KGlu 610 | [2]; primer extension 75 C, salt inhibition Ki NaCl 38.6, KCl 45.8, KGlu 59.6 | [3]; primer extension 75 C, salt inhibition Ki NaCl 238.4, KCl 251.0, KGlu 1164.5 | [4]; primer extension 75 C, salt inhibition Ki NaCl 228.4, KCl 231.2, KGlu 1730.0 | [5]; primer extension 75 C, salt inhibition Ki NaCl 159.6, KCl 176.8, KGlu 424.8 | [6]; primer extension 75 C, salt inhibition Ki NaCl 40.0, KCl 32.7, KGlu 71.0 | [7]; primer extension 75 C, salt inhibition Ki NaCl 69.0, KCl 187.7, KGlu 295.8 | [8]; primer extension 75 C, salt inhibition Ki NaCl 241.3, KCl 291.1, KGlu 1403.0 (unit not given) | [9]; primer extension 75 C, salt inhibition Ki NaCl 51.5, KCl 42.6, KGlu 42.8

GTGTGGTGGTGGTGGTGGTGGTGGTGGTGGTGGTGGTGGT / CACACCACCACCACCACCACCACCACCACCACCACCACCAAAAAATTTTT [high-temperature PTJ]
active: [1]; [10] | [2]; [10] | [3]; [11] | [4]; [11] | [5]; [11] | [6]; [10] | [7]; [11] | [8]; [11] | [9]; [10]

The exact form of at least one protein or probe is not confirmed.
